The values that follow come from publication PMC11074315.

No constants are given. Whether binding was seen depends on the method and setting. Binding can be weak; no strength is given. Sequences can lack the tags named with a protein.

The target of experiment [1] is T1, AUR1 (alpha-Aurora kinase), yeast two-hybrid fusion (Arabidopsis thaliana) (UniProt Q9M077).
T1 sequence: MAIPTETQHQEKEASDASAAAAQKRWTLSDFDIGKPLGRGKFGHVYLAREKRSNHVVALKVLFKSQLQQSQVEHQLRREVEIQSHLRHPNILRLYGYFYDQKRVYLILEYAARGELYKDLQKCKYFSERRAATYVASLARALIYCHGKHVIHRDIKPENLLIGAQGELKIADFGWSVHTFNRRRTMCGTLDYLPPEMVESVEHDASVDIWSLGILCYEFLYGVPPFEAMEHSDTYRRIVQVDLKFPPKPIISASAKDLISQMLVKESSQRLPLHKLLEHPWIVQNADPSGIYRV
In words: two-hybrid; pGADT7-GW (AD) and pGBKT7-GW (BD) fusions in yeast strain AH109; growth on -L/-W/-H/-A selection media, 30 °C, 2 days.

Experiment [2] concerns the target T2, GST-AUR1 (Arabidopsis thaliana) (UniProt Q9M077).
T2 sequence: T1 sequence
In words: pull-down; GST-AUR1 immobilised on glutathione beads, incubated with purified His-fused MAP65-3 or its truncations; 20 mM Tris-HCl pH 8.0, 150 mM NaCl, 0.2% Triton, 4 °C, 2 h; immunoblot with anti-His and anti-GST; both purified.

“MAP65-3 N-terminal dimerization fragment, yeast two-hybrid fusion (Arabidopsis thaliana) (domain or fragment)”: the binding result in experiment [1] is given as “binds”.

As for “His-fused MAP65-3 N-terminal fragment (Arabidopsis thaliana) (domain or fragment)”, the binding entry in experiment [2] was “binds”.

With “MAP65-3 C-terminal microtubule-binding region, yeast two-hybrid fusion (Arabidopsis thaliana) (domain or fragment)”, the binding entry in experiment [1] is “no binding”.
